This is an account of results in publication PMC8440590.

Sequences of proteins named here, by UniProt entry; tags and fusion partners are left off. Residues count along the entry.
UniProt P31421, residues 19-872: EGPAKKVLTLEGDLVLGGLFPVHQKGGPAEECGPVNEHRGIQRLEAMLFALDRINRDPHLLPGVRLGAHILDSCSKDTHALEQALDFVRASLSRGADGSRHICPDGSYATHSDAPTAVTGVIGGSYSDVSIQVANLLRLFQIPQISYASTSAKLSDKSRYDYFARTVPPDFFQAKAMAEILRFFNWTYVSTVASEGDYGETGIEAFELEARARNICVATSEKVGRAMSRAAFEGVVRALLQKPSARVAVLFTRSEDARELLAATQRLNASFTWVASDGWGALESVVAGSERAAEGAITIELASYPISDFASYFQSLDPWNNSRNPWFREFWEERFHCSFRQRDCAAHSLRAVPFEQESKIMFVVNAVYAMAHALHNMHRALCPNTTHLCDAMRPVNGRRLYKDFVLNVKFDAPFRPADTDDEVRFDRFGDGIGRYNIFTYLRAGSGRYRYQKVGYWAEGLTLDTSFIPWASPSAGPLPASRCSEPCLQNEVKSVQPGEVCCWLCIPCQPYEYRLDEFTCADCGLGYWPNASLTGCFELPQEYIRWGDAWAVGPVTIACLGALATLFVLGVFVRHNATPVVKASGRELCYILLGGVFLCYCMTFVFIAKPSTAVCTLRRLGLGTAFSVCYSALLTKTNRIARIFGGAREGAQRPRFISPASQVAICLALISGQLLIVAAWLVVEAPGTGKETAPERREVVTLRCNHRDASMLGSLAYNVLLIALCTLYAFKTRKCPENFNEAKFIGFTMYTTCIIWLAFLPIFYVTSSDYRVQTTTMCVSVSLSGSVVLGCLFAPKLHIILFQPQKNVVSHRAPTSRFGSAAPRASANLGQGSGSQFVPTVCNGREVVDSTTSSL

This experiment addresses full-length rat mGlu2 (SNAP-sensor based on the rat receptor) (rat) (UniProt P31421). Kind of experiment: FRET or BRET; intersubunit LRET between SNAP-tag labeled subunits (Lumi4-Tb donor, green acceptor) in microtiter plates, on crude membranes or after detergent solubilization (IGEPAL, DDM, LMNG, CHS, GDN mixtures), acquisition buffer pH 7.4, room temperature.

Results are given in words; binding and its absence hold for the method and conditions named. In cells and extracts the contact can be indirect. Some entries that bind do so weakly or less than the wild type.

Consider “full-length rat mGlu2 (SNAP-sensor based on the rat receptor) (from UniProt P31421 19-872)”, for which the binding entry is “binds”.
